Measurements from PMC12231567.

T1: C. elegans KNL-2, HA-tagged at its endogenous locus (C. elegans) (UniProt O44548)
T1 sequence: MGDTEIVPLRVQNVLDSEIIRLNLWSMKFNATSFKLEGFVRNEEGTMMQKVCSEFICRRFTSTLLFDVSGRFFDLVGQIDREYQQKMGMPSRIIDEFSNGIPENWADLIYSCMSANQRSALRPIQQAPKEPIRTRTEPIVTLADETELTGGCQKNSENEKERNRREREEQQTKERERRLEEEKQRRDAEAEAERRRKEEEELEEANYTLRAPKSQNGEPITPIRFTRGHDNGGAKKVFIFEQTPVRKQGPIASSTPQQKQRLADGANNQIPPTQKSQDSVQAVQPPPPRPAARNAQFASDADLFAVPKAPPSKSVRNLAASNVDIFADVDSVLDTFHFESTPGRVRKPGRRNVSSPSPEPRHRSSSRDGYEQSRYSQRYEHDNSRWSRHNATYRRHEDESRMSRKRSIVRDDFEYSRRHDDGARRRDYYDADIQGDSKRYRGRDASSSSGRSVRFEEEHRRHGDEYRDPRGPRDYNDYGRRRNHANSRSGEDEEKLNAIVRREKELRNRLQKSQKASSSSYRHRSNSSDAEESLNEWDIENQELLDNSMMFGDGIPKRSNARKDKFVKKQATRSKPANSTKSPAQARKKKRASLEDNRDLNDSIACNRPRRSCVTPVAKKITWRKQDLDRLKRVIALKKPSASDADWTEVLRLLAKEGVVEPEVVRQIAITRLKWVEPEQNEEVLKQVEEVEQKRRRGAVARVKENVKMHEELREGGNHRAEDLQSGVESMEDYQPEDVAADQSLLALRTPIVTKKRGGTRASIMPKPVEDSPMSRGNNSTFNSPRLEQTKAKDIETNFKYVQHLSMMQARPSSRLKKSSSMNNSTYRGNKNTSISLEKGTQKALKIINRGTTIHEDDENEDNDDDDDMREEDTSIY

T2: αKNL2-N fused to the GS tag (Arabidopsis thaliana) (UniProt F4KCE9)
T2 sequence: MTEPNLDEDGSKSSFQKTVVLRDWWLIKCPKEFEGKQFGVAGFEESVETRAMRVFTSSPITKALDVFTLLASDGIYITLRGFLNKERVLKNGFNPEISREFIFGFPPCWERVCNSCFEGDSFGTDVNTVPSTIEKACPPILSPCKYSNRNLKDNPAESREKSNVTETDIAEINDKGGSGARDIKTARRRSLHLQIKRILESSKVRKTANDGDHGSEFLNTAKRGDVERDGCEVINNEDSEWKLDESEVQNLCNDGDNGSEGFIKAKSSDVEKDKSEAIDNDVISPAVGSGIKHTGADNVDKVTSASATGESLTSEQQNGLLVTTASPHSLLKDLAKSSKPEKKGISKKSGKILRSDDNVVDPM


Columns and labels:
[1] = target: T1, C. elegans KNL-2, HA-tagged at its endogenous locus (C. elegans); assay: affinity purification with mass spectrometry; IP-MS: embryo lysate of C. elegans expressing KNL-2::2xHA from the endogenous locus (lysis buffer with 500 mM NaCl, 1% NP-40, 0.25% deoxycholate); anti-HA magnetic beads overnight at 4 °C; LC-MS/MS
[2] = target: T2, αKNL2-N fused to the GS tag (Arabidopsis thaliana); assay: affinity purification with mass spectrometry; GS-tagged αKNL2-N or αKNL2-C in Arabidopsis PSB-D suspension cells; Benzonase-treated extract (25 mM HEPES-KOH pH 7.4, 100 mM NaCl, 0.05% IGEPAL CA-630); IgG-coupled magnetic beads; LC-MS/MS; three purifications for each construct

Row | Binder | binding [1] | binding [2]
1 | APC2, endogenous in Arabidopsis culture cells (protein, UniProt Q8H1U5 1-865) MEALGSSDCNLEILETLSDDAIQEITESYDGFFTTVESLIAGTGDSLVEDEFVSHVYCLCKYGLDSLVRDHFLRSLEQAFEKGGASSFWQHFDAYSEKKHHNYGEEIQIVLCKALEEISIEKQYHEKCLSIVVHALQSFKEQSSDDRQNSDTERVHLFSRFQSMLSSTLMTTLPQHFPEILHWYFKERLEELSAIMDGDGIEEQEDDCMDLDEKLRYKNGEMDVDEGCSQGKRLGHDKLVKNIGKVVRDLRSIGFTSMAENAYASAIFLLLKAKVHDLAGDDYRTSVLESIKEWIQTVPLQFLNALLSYLGDSVSYGTTSSGLTSPLACCPSPSFSRVVTPSEGIVRWKLRLEYFAYETLQDLRIAKLFEIIVDYPESSPAIEDLKQCLEYTGQHSKLVESFISSLKYRLLTAGASTNDILHQYVSTIKALRAIDPAGVFLEAVGEPIRDYLRGRKDTIKCIVTMLTDGSGGNANGSGNPGDSLLEELMRDEESQENVGFDDDFHTDDKQAWINASRWEPDPVEADPLKGSLSQRKVDILGMLVDIIGSKEQLVNEYRVMLAEKLLNKTDYDIDTEIRTVELLKIHFGEASMQRCEIMLNDLIDSKRVNTNIKKASQTGAELRENELSVDTLTSTILSTNFWPPIQDEPLELPGPVDKLLSDYANRYHEIKTPRKLLWKKNLGTVKLELQFEDRAMQFTVSPTHAAIIMQFQEKKSWTYKDLAEVIGIPIDALNRRVNFWISKGVLRESTGANSNSSVLTLVESITDSGKNEGEELLTGEEEGETSIASVEDQLRKEMTIYEKFIMGMLTNFGSMALERIHNTLKMFCVADPSYDKSLQQLQSFLSGLVSEEKLEFRDGMYLLKK | – | binds
2 | CeFZY-1 (CDC20.1 ortholog), endogenous in C. elegans embryos (protein, UniProt Q09373 1-507) MNNKGRTPGSAGRTVRSSAQQNGLTMRKRDMTPTRNTNLLPNATFVGDRFLGVRLDQDELDHANHLMTSKLYSNKENLNNSMSEPNSPEKKSVEGEALKQMMRHKSTGALTDADDGDRILCYKKNLAPPPAIGYINQAKVLYSTNSVINPASSVKKSTRHVKETATKVLDGPGLTKDLYSRHLDWGCHNWVAVALGHELYLWNTETCVIKNLFEDNAPTNEGLITSVRWSQEGRYISLGYASGAVKIYDPNRPKTTEYVRELRTLRVGGASRCASIAWRKQGVMTCGYKSGDIVNHDVRISQHVVSSWGGDNGHCRDVTALEWSADENMCVSGSSDRTAKIWDGRHVRGSTVIQDPEPMFTIDEHTGQVRTAQFCSFRDGILATGGGINDGTVKLWDVKRQFQKVRELNVCETGGVGGIVFNRPYSEMLTASDDGFLRIYRFNANYKLSHEIQASNEPIMDLVGSPFDEVLIGDMEETLKVFQLFNVDKSTNILDRTAPKNVGLNVR | binds | –

Now from value to binder:

Row | binding [1] | binding [2] | Binder
3 | binds | – | CeEMB-27, endogenous in C. elegans embryos (protein, UniProt G5EG38 1-655) MSAISPDTKSFAIPTLADEGSSSKPASSLDLPKHESIRFKPIKTLASRIDGSEYYDEASMEKVMEMLEIGRTDEAVAYADTLYSNIIDDEQQDIVTIAEYVKILVVLRQWRRISHIIARGNYHQIHIVFAYYAATALFQRKLYEDVAELSVGHLLPSNGQIGPLPVRTLSQVTGRYVEEERMKYSFANMAELDNSSKKLRMVPALMITIAESFLKLMNRDAAMICINYALSLDNTTLHVERLMAKYNLVEPAMWEKYRKVRNEQLKLHEGNHDPRILMERAQRAYEMGRFRETKKITDELFDLFGPHPECIILRIHCLTMLKDSRSLLELGHQLVSDDPHIPLPWYCVAMYYYSIGANSRARNFISKCTMMDSTFAEGWVAFGHILHYEVEHEQSMSCYYRASKLVDKSSEPFLYTSLQYSTHSQKLSKKFMGEAVARAPNDPLIRHEEACVAYTAKSYAEADILFRTVLYMVTETDEIIPIEEVLKKKIDDFWHPMLNNIGHIARRQGRLNEAIMFYQKAIRMEPKFVDAIASTALCYAVLGNIDKATEFFNKALAIDPFNETIRQCLSKMIQASKESYSVDQQTLPPAYNSETYFGAQEILPYCAIRKPRNDGFVVPSIVSSSQPFMSMLRDRLRRQDQLYAQEPDNDAGNQV
4 | binds | – | CeMAT-3 (APC8), endogenous in C. elegans embryos (protein, UniProt Q19294 1-673) MNVSFSTPVQNSTASRLALIQQAAARSGALPPAGQYRGSKLSPFDVSQMSGVSISMVERAKINGPEFVEELEWLRQQTTSRCFLDAEMWTNEILAHLPDKWCAPNTLNLYNQVSELVLDNTRSPMASPASNSLYAPGEDQMPTVKRNHTSRFAQSLIKNKEFRRAAFFLEKTMNGNKLDHFLHFRCLFLAYYQEHLENDAEGIERKTSFAEERSPFSLLYQRMEDKKLRENEDVWFEYLMGLLEVELGLKDLAEKSFRNVVIREPRIWPAWEALSRLIADIEDADKFVTSAEVKSLWMGDWFMTLVLQRFHQHSMAIQKAEQLVTRGMTGLPMIITKIAACSNARHDHDQAISNFEDVRKADPYRLGDLHLLSDSLYIRNDQKKLSTLAIEVYKVHKFRWETCCIVANYHAIRRDSEHAIKFFQRALRLNPGLAALWVLIGHEFMEMKNNAAACVSYRRAIEIDPADHRGWYGLGQMYDIMKMPAYALFYYQEAQKCKPHDSRLLVALGDIYSKLNRIEDAEKCFTGAYLFGDVEGNALWSLAKLHERYSDDNKAAQAFEVFLVVYELVTSAEEKIIYAIAFLANHFFKIEDFDKASEYATKCLAFETLCQEGNRLFREIAKIQARESRLPVEEAPGPSNASAAGGQEAMDTEEAPQEGGEEEMSEGEDDFSF
5 | binds | – | CeMAT-1, endogenous in C. elegans embryos (protein, UniProt Q9N593 1-788) MKESAASVAVRPQLREVFERFPADAHRTIEDEIHEMMKCYAFDDAIFLAELHYETDKSNNSESLLLYADCLYRANKKEECYGLLSSVKLSGARLFYLLARVSYDLNKIDDCRGALFEHDDGVIRKDILEEPRVASHANLLHAQMLCDESYMDLALESCQKSLDENILLWSAIITYLRFGGHDLAHTFEKHHRKSNGLYLDSPASSLKSETPSPNVPGPSSSSAASTAEPSRLESSVRRSTRGTIASANRETRNTTSNITPRQSTPGSTPSRINPTAPRKSSRISEMTTRRTESSVTGSRSSLFTEPERPHTRATHSSRNRANAALNSDTENSNASNTRTRSGIASVTRGSSSSQRTNPVRTSIRIADAAAAANKTAKTLSQRRRNEKQPLVSRNSNLARSLSGSTNSVASTASERPSEDEVSQINPPLPSVASSLNNDEPMDIVDGVYDPEYKKLFDVYQHIALIEESISTYNWRSADALFAKLDRDIILNTSMVRLQLGRACFEQSEYRECRNILDDLHKRRKWKVDGTELLSTSMWHLQDTHALSALSQILTTESRERPQSWCAAGNCFSLQRQHTQAIECMERAIQLDKRFAYAYTLLGHELIVQDELDKAAGSFRSALLLSPRDYRAWYGLGLVHLKKEQNLTALTNIQKAVNINPTNRAMLCTLSQIEQQRGQIDTALVLIDRALTLNPLDVACRFNRSRLLFEANRNEECLVELDKLKASSPDEAFIFHLLARVHRRMGNTHLALLNYSWAAELDPRGEQNITDSNVINREEYEDDEYGSPV

No constants are given. Whether binding was seen depends on the method and setting. In cells and extracts the contact can be indirect. Here binding means that the protein was enriched with, or labelled near, the bait; the list need not be complete. Where a sequence is shown, tags or fusion partners need not be part of it.
